Data reported in patent publication EP0459978B1, “CLASS I MHC MODULATION OF SURFACE RECEPTOR ACTIVITY” (THE REGENTS OF THE UNIVERSITY OF CALIFORNIA, priority 1989, dated 1997).
Not every detail of the peptide structures is certain; ends, links or a residue may be inferred. No end group written: not given here.

Experiments:
[1] = tested on: fibrosarcoma expressing EGF receptors; experiment: 125I-EGF binding to cells in presence of peptide; assay type: cell-based, murine
P815 mastocytoma cells = experiment: 125I-insulin binding to cells in presence of peptide; assay type: cell-based, murine; conditions: increasing amounts of peptide, dose-dependent
R1E + β2M + K^b = experiment: 125I-insulin binding with and without L^d peptide; assay type: cell-based, murine
[2] = tested on: Cells of both human and murine origin; experiment: 125I-insulin binding to several other cell types in presence of peptide (Table 4); assay type: cell-based; conditions: several other cell types including freshly isolated murine spleen
R1E + β2M + D^b = experiment: 125I-insulin binding with and without L^d peptide; assay type: cell-based, murine
R1E = experiment: 125I-insulin binding with and without L^d peptide; assay type: cell-based, murine

Sequence | effect on epidermal growth factor (EGF) binding [1] | enhancement of hormone (insulin) binding (P815 mastocytoma cells) | %B/F (R1E + β2M + K^b; R1E + β2M + K^b, with L^d peptide) [%] | L^d peptide induced enhancement in insulin binding (R1E + β2M + K^b; RIE+B2M+K^b, presence versus absence of peptide) | insulin binding augmentation [2] | L^d peptide induced enhancement in insulin binding (R1E + β2M + D^b; D^b transfectants, presence versus absence of peptide) | %B/F (R1E + β2M + D^b; R1E + β2M + D^b, with L^d peptide) [%] | %B/F (R1E; R1E, with L^d peptide) [%] | L^d peptide induced enhancement in insulin binding (R1E; RIE, presence versus absence of peptide)
ERITQIAKGQEQWFRVNLRTLLGYY [L^d Peptide, ERITQIAKGQEQWFRVNLRTLLGYY] | no effect | at least an order of magnitude | 1.0 | failed to show appreciable L^d peptide induced enhancement | insulin binding augmentation to varying degrees | capable of augmenting | 2.0 | 1.0 | failed to show appreciable L^d peptide induced enhancement
ERITQIAKGQQWFRVNLRTLLGYY | – | unable to affect insulin binding | – | – | – | – | – | – | –
